Results taken from publication PMC4831152.
These are yes or no findings as the source states them, for the method shown. Binding seen in cells or lysates may run through a third protein. Some entries that bind do so weakly or less than the wild type.

Sequences of proteins named here, by UniProt entry; tags and fusion partners are left off.
UniProt P12813: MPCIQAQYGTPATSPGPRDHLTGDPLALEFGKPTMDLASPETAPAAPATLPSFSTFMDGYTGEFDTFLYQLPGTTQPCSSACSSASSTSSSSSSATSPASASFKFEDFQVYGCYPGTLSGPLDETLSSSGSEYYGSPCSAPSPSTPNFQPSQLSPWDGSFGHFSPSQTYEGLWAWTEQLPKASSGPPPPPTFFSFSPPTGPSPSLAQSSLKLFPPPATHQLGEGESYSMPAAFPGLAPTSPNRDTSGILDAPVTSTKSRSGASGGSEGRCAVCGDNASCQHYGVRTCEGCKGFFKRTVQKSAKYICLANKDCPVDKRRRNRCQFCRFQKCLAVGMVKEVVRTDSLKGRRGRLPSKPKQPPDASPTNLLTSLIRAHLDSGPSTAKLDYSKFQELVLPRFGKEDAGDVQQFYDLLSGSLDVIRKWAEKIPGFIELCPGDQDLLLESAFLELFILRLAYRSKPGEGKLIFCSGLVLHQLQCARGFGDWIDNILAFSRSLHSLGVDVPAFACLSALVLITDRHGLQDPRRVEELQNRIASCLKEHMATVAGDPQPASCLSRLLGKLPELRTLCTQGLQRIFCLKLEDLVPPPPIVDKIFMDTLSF
UniProt Q04207: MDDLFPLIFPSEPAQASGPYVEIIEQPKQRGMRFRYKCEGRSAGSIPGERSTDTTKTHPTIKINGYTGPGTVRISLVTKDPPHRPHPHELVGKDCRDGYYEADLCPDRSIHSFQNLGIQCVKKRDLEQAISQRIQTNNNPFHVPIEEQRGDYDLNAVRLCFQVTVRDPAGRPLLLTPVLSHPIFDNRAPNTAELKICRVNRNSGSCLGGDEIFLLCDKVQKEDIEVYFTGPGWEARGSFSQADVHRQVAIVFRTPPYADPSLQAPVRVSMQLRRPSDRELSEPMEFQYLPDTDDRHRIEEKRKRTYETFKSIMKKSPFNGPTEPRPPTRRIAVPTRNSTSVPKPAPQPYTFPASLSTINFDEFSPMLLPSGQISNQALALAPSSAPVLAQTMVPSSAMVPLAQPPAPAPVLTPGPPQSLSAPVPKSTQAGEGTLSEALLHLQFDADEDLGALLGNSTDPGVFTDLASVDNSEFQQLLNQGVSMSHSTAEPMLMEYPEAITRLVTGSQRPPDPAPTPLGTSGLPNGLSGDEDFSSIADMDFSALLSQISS

Legend:
[1] = biological target: orphan nuclear receptor Nur77 (mouse (endogenous in BV-2)) (UniProt P12813); assay: co-IP; nuclear extracts (120 μg protein) of BV-2 cells, with or without 6-MP (50 μM, 16 h) pretreatment, then LPS (100 ng/ml, 60 min); IP with rabbit anti-Nur77 or rabbit anti-p65 overnight at 4 °C, protein G magnetic beads; washed in 20 mM Tris pH 7.5, 150 mM NaCl, 1 % Triton X-100; blots with anti-Nur77 and anti-p65
[2] = biological target: NF-κB p65 (mouse (endogenous in BV-2)) (UniProt Q04207); assay: as above

Substance | binding [1] | binding [2]
NF-κB p65 (from UniProt Q04207 1-549) | binds | 
orphan nuclear receptor Nur77 (from UniProt P12813 1-601) |  | binds
